In patent publication US20190055553:
Construct, isoform or probe ends are uncertain for at least one entry.

Test system: PRC2 (EZH2/SUZ12/EED) (Homo sapiens)
Test: EMSA
Conditions: estimated; 50 mM Tris pH 8.0, 100 mM NaCl, 5 mM MgCl2, 50 ng/ml yeast tRNA, 30 C; 2 nM RNA; purified recombinant protein; label: 5'-32P

UCCCCUAAACAAAGACGAGGUCUUGCUAUGUUGCCCAGACUGGUCUCAAACUCCUGAGCUCAAGUGAUCCUCCUGCCUCAGCCUUCUAAAAUGCCGGGAUUACAGGCAUGAGCCACUGUACCUGGCCUUAAAUUUCUUAACAUAGCUAGCAUUUGGAGAAAACCAACCAAUAACAACAAAAGACCAACAAAAUUAAAUUUAACGAGGACGAAAAGACAGCAAGUGACAUAAAAAGUUUAAACAUUUUGAUUUAGACUAUGUAUCUGUUCCACUAUGAAGCUAUGAGUAAAAAAAAAAAAUCAAGCAUAAAUACUUUCAUGCUUUUCCUUAAUACACACACACACACACACACACACACAGCUCACAUAGCAUUUCGAGGGCGAUUUUAAGUAAAUGUCUUGGGUAGAACACCUGUUCUAACCCCAUCCCAAUACACAGUAU
binding result: binds
